B1: Splicing factor 1 (protein, UniProt Q15637 1-639)
chain: MATGANATPLDFPSKKRKRSRWNQDTMEQKTVIPGMPTVIPPGLTREQERAYIVQLQIEDLTRKLRTGDLGIPPNPEDRSPSPEPIYNSEGKRLNTREFRTRKKLEEERHNLITEMVALNPDFKPPADYKPPATRVSDKVMIPQDEYPEINFVGLLIGPRGNTLKNIEKECNAKIMIRGKGSVKEGKVGRKDGQMLPGEDEPLHALVTANTMENVKKAVEQIRNILKQGIETPEDQNDLRKMQLRELARLNGTLREDDNRILRPWQSSETRSITNTTVCTKCGGAGHIASDCKFQRPGDPQSAQDKARMDKEYLSLMAELGEAPVPASVGSTSGPATTPLASAPRPAAPANNPPPPSLMSTTQSRPPWMNSGPSESRPYHGMHGGGPGGPGGGPHSFPHPLPSLTGGHGGHPMQHNPNGPPPPWMQPPPPPMNQGPHPPGHHGPPPMDQYLGSTPVGSGVYRLHQGKGMMPPPPMGMMPPPPPPPSGQPPPPPSGPLPPWQQQQQQPPPPPPPSSSMASSTPLPWQQNTTTTTTSAGTGSIPPWQQQQAAAAASPGAPQMQGNPTMVPLPPGVQPPLPPGAPPPPPPPPPGSAGMMYAPPPPPPPPMDPSNFVTMMGMGVAGMPPFGMPPAPPPPPPQN
B2: Serine/arginine-rich splicing factor 3 (protein, UniProt P84103 1-164)
chain: MHRDSCPLDCKVYVGNLGNNGNKTELERAFGYYGPLRSVWVARNPPGFAFVEFEDPRDAADAVRELDGRTLCGCRVRVELSNGEKRSRNRGPPPSWGRRPRDDYRRRSPPPRRRSPRRRSFSRSRSRSLSRDRRRERSLSRERNHKPSRSFSRSRSRSRSNERK
B3: Pre-mRNA 3-end-processing factor FIP1 (protein, UniProt Q6UN15 1-594)
chain: MSAGEVERLVSELSGGTGGDEEEEWLYGGPWDVHVHSDLAKDLDENEVERPEEENASANPPSGIEDETAENGVPKPKVTETEDDSDSDSDDDEDDVHVTIGDIKTGAPQYGSYGTAPVNLNIKTGGRVYGTTGTKVKGVDLDAPGSINGVPLLEVDLDSFEDKPWRKPGADLSDYFNYGFNEDTWKAYCEKQKRIRMGLEVIPVTSTTNKITAEDCTMEVTPGAEIQDGRFNLFKVQQGRTGNSEKETALPSTKAEFTSPPSLFKTGLPPSRNSTSSQSQTSTASRKANSSVGKWQDRYGRAESPDLRRLPGAIDVIGQTITISRVEGRRRANENSNIQVLSERSATEVDNNFSKPPPFFPPGAPPTHLPPPPFLPPPPTVSTAPPLIPPPGFPPPPGAPPPSLIPTIESGHSSGYDSRSARAFPYGNVAFPHLPGSAPSWPSLVDTSKQWDYYARREKDRDRERDRDRERDRDRDRERERTRERERERDHSPTPSVFNSDEERYRYREYAERGYERHRASREKEERHRERRHREKEETRHKSSRSNSRRRHESEEGDSHRRHKHKKSKRSKEGKEAGSEPAPEQESTEATPAE
B4: Cell division cycle and apoptosis regulator protein 1 (protein, UniProt Q8IX12 1-1150)
chain: MAQFGGQKNPPWATQFTATAVSQPAALGVQQPSLLGASPTIYTQQTALAAAGLTTQTPANYQLTQTAALQQQAAAAAAALQQQYSQPQQALYSVQQQLQQPQQTLLTQPAVALPTSLSLSTPQPTAQITVSYPTPRSSQQQTQPQKQRVFTGVVTKLHDTFGFVDEDVFFQLSAVKGKTPQVGDRVLVEATYNPNMPFKWNAQRIQTLPNQNQSQTQPLLKTPPAVLQPIAPQTTFGVQTQPQPQSLLQAQISAASITPLLQTQPQPLLQQPQQKAGLLQPPVRIVSQPQPARRLDPPSRFSGRNDRGDQVPNRKDDRSRERERERRRSRERSPQRKRSRERSPRRERERSPRRVRRVVPRYTVQFSKFSLDCPSCDMMELRRRYQNLYIPSDFFDAQFTWVDAFPLSRPFQLGNYCNFYVMHREVESLEKNMAILDPPDADHLYSAKVMLMASPSMEDLYHKSCALAEDPQELRDGFQHPARLVKFLVGMKGKDEAMAIGGHWSPSLDGPDPEKDPSVLIKTAIRCCKALTGIDLSVCTQWYRFAEIRYHRPEETHKGRTVPAHVETVVLFFPDVWHCLPTRSEWETLSRGYKQQLVEKLQGERKEADGEQDEEEKDDGEAKEISTPTHWSKLDPKTMKVNDLRKELESRALSSKGLKSQLIARLTKQLKVEEQKEEQKELEKSEKEEDEDDDRKSEDDKEEEERKRQEEIERQRRERRYILPDEPAIIVHPNWAAKSGKFDCSIMSLSVLLDYRLEDNKEHSFEVSLFAELFNEMLQRDFGVRIYKSLLSLPEKEDKKEKDKKSKKDERKDKKEERDDETDEPKPKRRKSGDDKDKKEDRDERKKEDKRKDDSKDDDETEEDNNQDEYDPMEAEEAEDEEDDRDEEEMTKRDDKRDINRYCKERPSKDKEKEKTQMITINRDLLMAFVYFDQSHCGYLLEKDLEEILYTLGLHLSRAQVKKLLNKVVLRESCFYRKLTDTSKDEENHEESESLQEDMLGNRLLLPTPTVKQESKDVEENVGLIVYNGAMVDVGSLLQKLEKSEKVRAEVEQKLQLLEEKTDEDEKTILNLENSNKSLSGELREVKKDLSQLQENLKISENMNLQFENQMNKTIRNLSTVMDEIHTVLKKDNVKNEDKDQKSKENGASV
B5: Clathrin (CLTA) (protein, UniProt P09496 1-248)
chain: MAELDPFGAPAGAPGGPALGNGVAGAGEEDPAAAFLAQQESEIAGIENDEAFAILDGGAPGPQPHGEPPGGPDAVDGVMNGEYYQESNGPTDSYAAISQVDRLQSEPESIRKWREEQMERLEALDANSRKQEAEWKEKAIKELEEWYARQDEQLQKTKANNRVADEAFYKQPFADVIGYVTNINHPCYSLEQAAEEAFVNDIDESSPGTEWERVARLCDFNPKSSKQAKDVSRMRSVLISLKQAPLVH
B6: Heterogeneous nuclear ribonucleoprotein D-like (protein, UniProt O14979 1-420)
chain: MEVPPRLSHVPPPLFPSAPATLASRSLSHWRPRPPRQLAPLLPSLAPSSARQGARRAQRHVTAQQPSRLAGGAAIKGGRRRRPDLFRRHFKSSSIQRSAAAAAATRTARQHPPADSSVTMEDMNEYSNIEEFAEGSKINASKNQQDDGKMFIGGLSWDTSKKDLTEYLSRFGEVVDCTIKTDPVTGRSRGFGFVLFKDAASVDKVLELKEHKLDGKLIDPKRAKALKGKEPPKKVFVGGLSPDTSEEQIKEYFGAFGEIENIELPMDTKTNERRGFCFITYTDEEPVKKLLESRYHQIGSGKCEIKVAQPKEVYRQQQQQQKGGRGAAAGGRGGTRGRGRGQGQNWNQGFNNYYDQGYGNYNSAYGGDQNYSGYGGYDYTGYNYGNYGYGQGYADYSGQQSTYGKASRGGGNHQNNYQPY
B7: Cleavage and polyadenylation specificity factor subunit 7 (protein, UniProt Q8N684 1-471)
chain: MSEGVDLIDIYADEEFNQDPEFNNTDQIDLYDDVLTATSQPSDDRSSSTEPPPPVRQEPSPKPNNKTPAILYTYSGLRNRRAAVYVGSFSWWTTDQQLIQVIRSIGVYDVVELKFAENRANGQSKGYAEVVVASENSVHKLLELLPGKVLNGEKVDVRPATRQNLSQFEAQARKRECVRVPRGGIPPRAHSRDSSDSADGRATPSENLVPSSARVDKPPSVLPYFNRPPSALPLMGLPPPPIPPPPPLSSSFGVPPPPPGIHYQHLMPPPPRLPPHLAVPPPGAIPPALHLNPAFFPPPNATVGPPPDTYMKASAPYNHHGSRDSGPPPSTVSEAEFEDIMKRNRAISSSAISKAVSGASAGDYSDAIETLLTAIAVIKQSRVANDERCRVLISSLKDCLHGIEAKSYSVGASGSSSRKRHRSRERSPSRSRESSRRHRDLLHNEDRHDDYFQERNREHERHRDRERDRHH

Amino acid sequences for entries named in this document (tags omitted).
UniProt Q14974: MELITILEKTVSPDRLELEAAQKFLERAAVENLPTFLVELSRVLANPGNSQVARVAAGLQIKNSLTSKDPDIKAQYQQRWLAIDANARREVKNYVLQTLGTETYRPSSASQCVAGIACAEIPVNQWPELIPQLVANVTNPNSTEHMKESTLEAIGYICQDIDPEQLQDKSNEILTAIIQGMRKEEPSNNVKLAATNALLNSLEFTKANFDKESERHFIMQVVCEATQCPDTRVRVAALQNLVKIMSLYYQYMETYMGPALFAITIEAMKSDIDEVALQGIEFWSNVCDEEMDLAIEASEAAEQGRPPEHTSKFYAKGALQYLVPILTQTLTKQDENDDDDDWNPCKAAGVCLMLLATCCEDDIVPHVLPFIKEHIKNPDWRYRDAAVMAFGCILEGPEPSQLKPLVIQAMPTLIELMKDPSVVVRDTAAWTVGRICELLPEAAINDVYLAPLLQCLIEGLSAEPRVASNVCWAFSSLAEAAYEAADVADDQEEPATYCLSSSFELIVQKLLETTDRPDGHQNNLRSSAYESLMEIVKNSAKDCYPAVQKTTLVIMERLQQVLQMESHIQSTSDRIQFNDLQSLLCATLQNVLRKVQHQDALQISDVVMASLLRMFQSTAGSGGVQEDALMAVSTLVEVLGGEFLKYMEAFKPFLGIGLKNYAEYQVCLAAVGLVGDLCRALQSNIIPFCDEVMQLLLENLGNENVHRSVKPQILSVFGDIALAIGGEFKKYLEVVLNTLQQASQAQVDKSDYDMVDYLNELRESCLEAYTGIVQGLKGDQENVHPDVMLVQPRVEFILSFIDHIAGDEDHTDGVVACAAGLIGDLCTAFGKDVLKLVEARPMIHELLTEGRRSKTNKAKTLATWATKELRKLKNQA

No constants are given. Whether binding was seen depends on the method and setting. In cells and extracts the contact can be indirect. A yes stands for co-enrichment or nearness to the bait. Other partners may have been found.

The target of the assay is Karyopherin beta 1 (human (endogenous in hTERT-RPE1, HeLa, WHCO5, KYSE30)) (UniProt Q14974). As to the kind of experiment: affinity purification with mass spectrometry; endogenous Kpnβ1 precipitated with 50 µg anti-Karyopherin β1 (H-7) agarose-conjugated antibody from 500 µg lysate of hTERT-RPE1, HeLa, WHCO5 or KYSE30 cells; non-denaturing lysis buffer (1% Triton X-100, 120 mM NaCl, 1 mM CaCl2, 25 mM Tris, pH 7.4); 4 °C overnight; no cross-linking; hits present in all three replicates and absent from the IgG isotype controls.
Turning to B1, the binding result is recorded as “binds”.

As for B2, the binding entry was “binds”.

Take B3: the binding result is given as “binds”.

Take B4: the binding result is recorded as “binds”.

Regarding B5, the binding entry was “binds”.

As for B6, the binding result was “binds”.

Regarding B7, the binding entry is listed as “binds”.
